# Source: the supplement of paper PMC8728848
# The list shows a part of the results.
# Key:
# Experiment in all cases: glycan array binding signal (z-score within array); higher = stronger binding
# Details in all cases: glycan notation: IUPAC condensed, linker removed
# [1] = biological target: Gal(b1-4)GlcNAc(b1-3)Gal(b1-4)GlcNAc(b1-2)[Gal(b1-4)GlcNAc(b1-3)Gal(b1-4)GlcNAc(b1-6)]Man(a1-6)[Gal(b1-4)GlcNAc(b1-3)Gal(b1-4)GlcNAc(b1-2)Man(a1-3)]Man(b1-4)GlcNAc(b1-4)GlcNAc
# Summary of the method: (§1)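 The binding signal is a Z-score computed within each array. Data were drawn from 3228 arrays in the Consortium for Functional Glycomics database, restricted to those with a known protein sequence. Scores were averaged over arrays of the same protein sequence at different concentrations or buffers, and over linkers, and negative values can be taken as non-binding.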
# [2] = biological target: Gal(b1-4)GlcNAc(b1-3)Gal(b1-4)GlcNAc(b1-2)[Gal(b1-4)GlcNAc(b1-3)Gal(b1-4)GlcNAc(b1-6)]Man(a1-6)[Gal(b1-4)GlcNAc(b1-3)Gal(b1-4)GlcNAc(b1-2)Man(a1-3)]Man(b1-4)GlcNAc(b1-4)[Fuc(a1-6)]GlcNAc
# Summary of the method: as §1
# [3] = biological target: Gal(b1-4)GlcNAc(b1-3)Gal(b1-4)GlcNAc(b1-3)Gal(b1-4)GlcNAc
# Summary of the method: as §1
# [4] = biological target: Gal(b1-4)GlcNAc(b1-3)Gal(b1-4)GlcNAc(b1-3)Gal(b1-4)GlcNAc(b1-2)Man(a1-3)[Gal(b1-4)GlcNAc(b1-3)Gal(b1-4)GlcNAc(b1-3)Gal(b1-4)GlcNAc(b1-2)Man(a1-6)]Man(b1-4)GlcNAc(b1-4)GlcNAc
# Summary of the method: as §1
# [5] = biological target: Gal(b1-4)GlcNAc(b1-3)Gal(b1-4)GlcNAc(b1-3)Gal(b1-4)GlcNAc(b1-2)Man(a1-3)[Gal(b1-4)GlcNAc(b1-3)Gal(b1-4)GlcNAc(b1-3)Gal(b1-4)GlcNAc(b1-2)Man(a1-6)]Man(b1-4)GlcNAc(b1-4)[Fuc(a1-6)]GlcNAc
# Summary of the method: as §1
# [6] = biological target: Gal(b1-4)GlcNAc(b1-3)Gal(b1-4)GlcNAc(b1-3)Gal(b1-4)GlcNAc(b1-2)[Gal(b1-4)GlcNAc(b1-3)Gal(b1-4)GlcNAc(b1-3)Gal(b1-4)GlcNAc(b1-6)]Man(a1-6)[Gal(b1-4)GlcNAc(b1-3)Gal(b1-4)GlcNAc(b1-3)Gal(b1-4)GlcNAc(b1-2)Man(a1-3)]Man(b1-4)GlcNAc(b1-4)[Fuc(a1-6)]GlcNAc
# Summary of the method: as §1
# [7] = biological target: Gal(b1-4)GlcNAc(b1-3)Gal(b1-4)GlcNAc(b1-3)Gal(b1-4)GlcNAc(b1-3)Gal(b1-4)GlcNAc(b1-2)Man(a1-3)[Gal(b1-4)GlcNAc(b1-3)Gal(b1-4)GlcNAc(b1-3)Gal(b1-4)GlcNAc(b1-3)Gal(b1-4)GlcNAc(b1-2)Man(a1-6)]Man(b1-4)GlcNAc(b1-4)GlcNAc
# Summary of the method: as §1
# [8] = biological target: Gal(b1-4)GlcNAc(b1-3)Gal(b1-4)GlcNAc(b1-3)Gal(b1-4)GlcNAc(b1-3)Gal(b1-4)GlcNAc(b1-2)Man(a1-3)[Gal(b1-4)GlcNAc(b1-3)Gal(b1-4)GlcNAc(b1-3)Gal(b1-4)GlcNAc(b1-3)Gal(b1-4)GlcNAc(b1-2)Man(a1-6)]Man(b1-4)GlcNAc(b1-4)[Fuc(a1-6)]GlcNAc
# Summary of the method: as §1
# [9] = biological target: Gal(b1-4)GlcNAc(b1-3)Gal(b1-4)GlcNAc(b1-3)Gal(b1-4)GlcNAc(b1-3)Gal(b1-4)GlcNAc(b1-2)[Gal(b1-4)GlcNAc(b1-3)Gal(b1-4)GlcNAc(b1-3)Gal(b1-4)GlcNAc(b1-3)Gal(b1-4)GlcNAc(b1-6)]Man(a1-6)[Gal(b1-4)GlcNAc(b1-3)Gal(b1-4)GlcNAc(b1-3)Gal(b1-4)GlcNAc(b1-3)Gal(b1-4)GlcNAc(b1-2)Man(a1-3)]Man(b1-4)GlcNAc(b1-4)[Fuc(a1-6)]GlcNAc
# Summary of the method: as §1
# [10] = biological target: Gal(b1-4)GlcNAc(b1-3)Gal(b1-4)GlcNAc(b1-3)Gal(b1-4)GlcNAc(b1-3)Gal(b1-4)GlcNAc(b1-3)Gal(b1-4)GlcNAc(b1-2)Man(a1-3)[Gal(b1-4)GlcNAc(b1-3)Gal(b1-4)GlcNAc(b1-3)Gal(b1-4)GlcNAc(b1-3)Gal(b1-4)GlcNAc(b1-3)Gal(b1-4)GlcNAc(b1-2)Man(a1-6)]Man(b1-4)GlcNAc(b1-4)GlcNAc
# Summary of the method: as §1
# [11] = biological target: Gal(b1-4)GlcNAc(b1-3)Gal(b1-4)GlcNAc(b1-3)Gal(b1-4)GlcNAc(b1-3)Gal(b1-4)GlcNAc(b1-3)Gal(b1-4)GlcNAc(b1-2)Man(a1-3)[Gal(b1-4)GlcNAc(b1-3)Gal(b1-4)GlcNAc(b1-3)Gal(b1-4)GlcNAc(b1-3)Gal(b1-4)GlcNAc(b1-3)Gal(b1-4)GlcNAc(b1-2)Man(a1-6)]Man(b1-4)GlcNAc(b1-4)[Fuc(a1-6)]GlcNAc
# Summary of the method: as §1
# [12] = biological target: Gal(b1-4)GlcNAc(b1-3)Gal(b1-4)GlcNAc(b1-3)Gal(b1-4)GlcNAc(b1-3)Gal(b1-4)GlcNAc(b1-3)Gal(b1-4)GlcNAc(b1-2)[Gal(b1-4)GlcNAc(b1-3)Gal(b1-4)GlcNAc(b1-3)Gal(b1-4)GlcNAc(b1-3)Gal(b1-4)GlcNAc(b1-3)Gal(b1-4)GlcNAc(b1-6)]Man(a1-6)[Gal(b1-4)GlcNAc(b1-3)Gal(b1-4)GlcNAc(b1-3)Gal(b1-4)GlcNAc(b1-3)Gal(b1-4)GlcNAc(b1-3)Gal(b1-4)GlcNAc(b1-2)Man(a1-3)]Man(b1-4)GlcNAc(b1-4)[Fuc(a1-6)]GlcNAc
# Summary of the method: as §1
# [13] = biological target: Gal(b1-4)GlcNAc(b1-3)Gal(b1-4)GlcNAc(b1-3)Gal(b1-4)GlcNAc(b1-3)Gal(b1-4)GlcNAc(b1-3)Gal(b1-4)GlcNAc(b1-3)Gal(b1-4)GlcNAc(b1-2)Man(a1-3)[Gal(b1-4)GlcNAc(b1-3)Gal(b1-4)GlcNAc(b1-3)Gal(b1-4)GlcNAc(b1-3)Gal(b1-4)GlcNAc(b1-3)Gal(b1-4)GlcNAc(b1-3)Gal(b1-4)GlcNAc(b1-2)Man(a1-6)]Man(b1-4)GlcNAc(b1-4)GlcNAc
# Summary of the method: as §1
# [14] = biological target: Gal(b1-4)GlcNAc(b1-3)Gal(b1-4)GlcNAc(b1-3)GalNAc
# Summary of the method: as §1
# [15] = biological target: Gal(b1-4)GlcNAc(b1-3)Gal(b1-4)GlcNAc(b1-3)[Gal(b1-4)GlcNAc(b1-3)Gal(b1-4)GlcNAc(b1-6)]GalNAc
# Summary of the method: as §1
# [16] = biological target: Gal(b1-4)GlcNAc(b1-3)Gal(b1-4)GlcNAc(b1-6)[Gal(b1-3)]GalNAc
# Summary of the method: as §1
# [17] = biological target: Gal(b1-4)GlcNAc(b1-3)Gal(b1-4)[Fuc(a1-3)]GlcNAc(b1-3)Gal(b1-4)[Fuc(a1-3)]GlcNAc
# Summary of the method: as §1
# [18] = biological target: Gal(b1-4)GlcNAc(b1-3)GalNAc
# Summary of the method: as §1
# [19] = biological target: Gal(b1-4)GlcNAc(b1-3)[Fuc(a1-3)GlcNAc(b1-6)]Gal(b1-4)Glc
# Summary of the method: as §1
# [20] = biological target: Gal(b1-4)GlcNAc(b1-3)[Gal(b1-4)GlcNAc(b1-6)]Gal(b1-4)GlcNAc
# Summary of the method: as §1
# [21] = biological target: Gal(b1-4)GlcNAc(b1-3)[GlcNAc(b1-6)]Gal(b1-4)GlcNAc
# Summary of the method: as §1
# [22] = biological target: Gal(b1-4)GlcNAc(b1-6)Gal(b1-4)GlcNAc
# Summary of the method: as §1
# [23] = biological target: Gal(b1-4)GlcNAc(b1-6)GalNAc
# Summary of the method: as §1
# [24] = biological target: Gal(b1-4)GlcNAc(b1-6)[Gal(b1-3)]GalNAc
# Summary of the method: as §1
# [25] = biological target: Gal(b1-4)GlcNAc(b1-6)[Gal(b1-4)GlcNAc(b1-3)]GalNAc
# Summary of the method: as §1
# [26] = biological target: Gal(b1-4)GlcNAc6P
# Summary of the method: as §1
# [27] = biological target: Gal(b1-6)Gal
# Summary of the method: as §1
# [28] = biological target: Gal3S(b1-3)GalNAc
# Summary of the method: as §1
# [29] = biological target: Gal3S(b1-3)GlcNAc
# Summary of the method: as §1
# [30] = biological target: Gal3S(b1-3)[Fuc(a1-4)]GlcNAc
# Summary of the method: as §1
# [31] = biological target: Gal3S(b1-4)Glc
# Summary of the method: as §1
# [32] = biological target: Gal3S(b1-4)Glc6S
# Summary of the method: as §1
# [33] = biological target: Gal3S(b1-4)GlcNAc
# Summary of the method: as §1
# [34] = biological target: Gal3S(b1-4)[Fuc(a1-3)]Glc6S
# Summary of the method: as §1
# [35] = biological target: Gal3S(b1-4)[Fuc(a1-3)]GlcNAc
# Summary of the method: as §1
# [36] = biological target: Gal3S(b1-4)[Fuc(a1-3)]GlcNAc6S
# Summary of the method: as §1
# [37] = biological target: Gal3S4S(b1-4)GlcNAc
# Summary of the method: as §1
binder,measurement,setting,value
EUL D1A (Oryza sativa) (protein) MFGFGHHHNQAPAAPSDPNQIFKIFCRANENYCLTVRDSAVVLAPVNPKDEHQHWFKDMRFSTKVKDGEGMPAFALVNKATGLAVKHSLGQSHPVKLVPFNPEYEDASVLWTESKDVGKGFRCIRMVNNTRLNLDAFHGDKDHGGVRDGTTVVLWEWCKGDNQSWKILPWGPEAHSSSPGAATACTIGGVPVHTVRVFSAAGEDYCLTVRNGTACLAPKNPRDDYQHWIKDMRHSNKIRDEEGYPAFALVNKVTGEAIKHSTGQGHPVKLVPYNPEYQDESVLWTESKDVGKGFRCIRMVNNIYLNFDAFHGDKDHGGIHDGTEIVLWKWCEGDNQRWKILPWILEQKLISEEDLNSAVDHHHHHH,glycan array binding signal (z-score),[1],0.1
same,glycan array binding signal (z-score),[2],1.36
same,glycan array binding signal (z-score),[3],-0.076
same,glycan array binding signal (z-score),[4],2.18
same,glycan array binding signal (z-score),[5],1.45
same,glycan array binding signal (z-score),[6],2.54
same,glycan array binding signal (z-score),[7],2.32
same,glycan array binding signal (z-score),[8],1.99
same,glycan array binding signal (z-score),[9],2.71
same,glycan array binding signal (z-score),[10],0.967
same,glycan array binding signal (z-score),[11],0.176
same,glycan array binding signal (z-score),[12],1.83
same,glycan array binding signal (z-score),[13],0.339
same,glycan array binding signal (z-score),[14],0.95
same,glycan array binding signal (z-score),[15],1.06
same,glycan array binding signal (z-score),[16],2.71
same,glycan array binding signal (z-score),[17],-0.649
same,glycan array binding signal (z-score),[18],-0.127
same,glycan array binding signal (z-score),[19],-1.18
same,glycan array binding signal (z-score),[20],-0.866
same,glycan array binding signal (z-score),[21],0.786
same,glycan array binding signal (z-score),[22],-1.43
same,glycan array binding signal (z-score),[23],0.031
same,glycan array binding signal (z-score),[24],-0.219
same,glycan array binding signal (z-score),[25],0.892
same,glycan array binding signal (z-score),[26],-1.15
same,glycan array binding signal (z-score),[27],-1.2
same,glycan array binding signal (z-score),[28],-0.294
same,glycan array binding signal (z-score),[29],0.344
same,glycan array binding signal (z-score),[30],2.28
same,glycan array binding signal (z-score),[31],0.794
same,glycan array binding signal (z-score),[32],0.17
same,glycan array binding signal (z-score),[33],1
same,glycan array binding signal (z-score),[34],2.51
same,glycan array binding signal (z-score),[35],0.926
same,glycan array binding signal (z-score),[36],-0.073
same,glycan array binding signal (z-score),[37],0.508

# Two consecutive entries already listed:
binder,measurement,setting,value
EUL D1A (Oryza sativa) (protein) MFGFGHHHNQAPAAPSDPNQIFKIFCRANENYCLTVRDSAVVLAPVNPKDEHQHWFKDMRFSTKVKDGEGMPAFALVNKATGLAVKHSLGQSHPVKLVPFNPEYEDASVLWTESKDVGKGFRCIRMVNNTRLNLDAFHGDKDHGGVRDGTTVVLWEWCKGDNQSWKILPWGPEAHSSSPGAATACTIGGVPVHTVRVFSAAGEDYCLTVRNGTACLAPKNPRDDYQHWIKDMRHSNKIRDEEGYPAFALVNKVTGEAIKHSTGQGHPVKLVPYNPEYQDESVLWTESKDVGKGFRCIRMVNNIYLNFDAFHGDKDHGGIHDGTEIVLWKWCEGDNQRWKILPWILEQKLISEEDLNSAVDHHHHHH,glycan array binding signal (z-score),[28],-0.294
same,glycan array binding signal (z-score),[29],0.344
